Data as given in PubChem BioAssay AID1259308 (NCATS, 2017)
The deposit covers about 59,000 reagents; shown is a part drawn at random. Of all reagents, about 1,510 (2.6%) are marked active. 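Calls use total luciferase alone and ignore viability, so some active siRNAs may act by altering cell number.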 The numbers tell different reagents against one gene apart. Further read-outs or replicates are left out here. No sequences are given here.

- Purpose: 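Genes whose loss raises luciferase production in HEK293 cells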 (primary screen)
- System: human HEK293 embryonic kidney cells stably expressing firefly luciferase (HEK-CMV-Luc2-Hygro)
- Reagent: single siRNA against human genes, 0.8 pmol siRNA per well
- Timing: 72 h
- Read-out: 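Reporter luminescence and viable-cell signal on separate replicate plates, given as percent of non-targeting control and median/MAD z-scores, plus per-cell luciferase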
- Direction: total luciferase, z-score: higher = more reporter protein produced
- Hit rule: 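An siRNA counts as active if its total luciferase robust z-score exceeds 3; genes with two or more such siRNAs out of three were retested with fresh siRNAs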
- Meaning of the calls: active = raised luciferase; inactive = no rise

{"target gene": "ELAC1 (elaC ribonuclease Z 1)", "siRNA no.": 1, "total luciferase, z-score": -1.59, "call": "inactive"}
{"target gene": "ELAC1 (elaC ribonuclease Z 1)", "siRNA no.": 2, "total luciferase, z-score": 3.1, "call": "active"}
{"target gene": "ELAC1 (elaC ribonuclease Z 1)", "siRNA no.": 3, "total luciferase, z-score": 0.737, "call": "inactive"}
{"target gene": "LAMC1 (laminin subunit gamma 1)", "siRNA no.": 1, "total luciferase, z-score": 0.0487, "call": "inactive"}
{"target gene": "LAMC1 (laminin subunit gamma 1)", "siRNA no.": 2, "total luciferase, z-score": -0.488, "call": "inactive"}
{"target gene": "LAMC1 (laminin subunit gamma 1)", "siRNA no.": 3, "total luciferase, z-score": -3.45, "call": "inactive"}
{"target gene": "RCVRN (recoverin)", "siRNA no.": 1, "total luciferase, z-score": 3.05, "call": "active"}
{"target gene": "RCVRN (recoverin)", "siRNA no.": 2, "total luciferase, z-score": -0.17, "call": "inactive"}
{"target gene": "RCVRN (recoverin)", "siRNA no.": 3, "total luciferase, z-score": 0.36, "call": "inactive"}
{"target gene": "MDN1 (midasin AAA ATPase 1)", "siRNA no.": 1, "total luciferase, z-score": -0.329, "call": "inactive"}
{"target gene": "MDN1 (midasin AAA ATPase 1)", "siRNA no.": 2, "total luciferase, z-score": -0.968, "call": "inactive"}
{"target gene": "MDN1 (midasin AAA ATPase 1)", "siRNA no.": 3, "total luciferase, z-score": -0.148, "call": "inactive"}
{"target gene": "MLEC (malectin)", "siRNA no.": 1, "total luciferase, z-score": -2.21, "call": "inactive"}
{"target gene": "MLEC (malectin)", "siRNA no.": 2, "total luciferase, z-score": 0.303, "call": "inactive"}
{"target gene": "MLEC (malectin)", "siRNA no.": 3, "total luciferase, z-score": -0.194, "call": "inactive"}
{"target gene": "FUT2 (fucosyltransferase 2 (H blood group))", "siRNA no.": 1, "total luciferase, z-score": 1.71, "call": "inactive"}
{"target gene": "FUT2 (fucosyltransferase 2 (H blood group))", "siRNA no.": 2, "total luciferase, z-score": 0.897, "call": "inactive"}
{"target gene": "FUT2 (fucosyltransferase 2 (H blood group))", "siRNA no.": 3, "total luciferase, z-score": -0.55, "call": "inactive"}
{"target gene": "PIGY (phosphatidylinositol glycan anchor biosynthesis class Y)", "siRNA no.": 1, "total luciferase, z-score": -0.741, "call": "inactive"}
{"target gene": "PIGY (phosphatidylinositol glycan anchor biosynthesis class Y)", "siRNA no.": 2, "total luciferase, z-score": 2.18, "call": "inactive"}
{"target gene": "PIGY (phosphatidylinositol glycan anchor biosynthesis class Y)", "siRNA no.": 3, "total luciferase, z-score": -0.0765, "call": "inactive"}

An excerpt of the results above, for reference:
{"target gene": "FUT2 (fucosyltransferase 2 (H blood group))", "siRNA no.": 3, "total luciferase, z-score": -0.55, "call": "inactive"}
{"target gene": "PIGY (phosphatidylinositol glycan anchor biosynthesis class Y)", "siRNA no.": 1, "total luciferase, z-score": -0.741, "call": "inactive"}
